Measurements reported in patent US20140273152A1.

Target: MnxG (Bacillus sp. strain PL-12)
Experiment: co-purification; MS/MS of the active band from non-denaturing SDS-PAGE; size exclusion chromatography gives 230 kDa for the complex

Row | binding | Binder
1 | binds | MnxF (protein) MEALFPMSTDYSKMTDVNEIHDSAILEHFRNGIGHKTLVISPSYPYMFVGIIKELIGDTVMIDVETTHFAQLENREWYIHIHNIEVFYIERPGAPKIPKLEDY
2 | binds | MnxE (protein) MHDSPLKSLSAASNVASVNDPLFDFFNKHMGKQILIITESSQLNILGQTFRPIFCGKVAEVEPGHLTLSPVTIKILNAPFHKFPIPLSIPFEKIAHFTTDVDCSMRIPLV

No constants are given. Whether binding was seen depends on the method and setting. In cells and extracts the contact can be indirect. Binding can be weak; no strength is given.
